{"source": "PubChem BioAssay AID504793 (Drosophila RNAi Screening Center, 2011)", "aim": "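Whole-genome screen for parts of the DNA damage checkpoint at G2/M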 (primary screen)", "system": "Drosophila S2R+ cells", "knock-down reagent": "long dsRNA against Drosophila genes, about 0.25 µg dsRNA per well", "timing": "4 days of dsRNA, then 4 hours of drug before read-out", "conditions": "doxorubicin 0.5 µM for 4 hours to cause double-strand breaks, in cells also given a low, harmless dose of dsRNA against nbs to sensitise the assay", "detection": "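Mitotic index as the number of phospho-histone H3-positive cells in each well following doxorubicin, given as raw counts without normalisation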", "scale": "mitotic cells: higher = more cells in mitosis, weaker G2 arrest", "hit rule": "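a call needs confirmation in secondary tests, with other dsRNAs and a check of mitotic timing without damage, not just a high primary count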", "meaning of the calls": "active = confirmed in follow-up tests; inactive = not confirmed", "note": "In all, the deposit lists about 23,000 reagents; below is an unselected part of those with a known target gene and a result. Of all reagents, 62 (0.27%) are marked active. 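Calls come from follow-up tests whose scores are not deposited, so confirmed genes may have low counts here; counts are not normalised per plate.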 The raw values are shown without normalisation. The numbers tell different reagents against one gene apart. Names joined by + are all predicted targets of the reagent. Reagent sequences are not shown."}
{"predicted target": "He + NimB5", "dsRNA no.": 1, "mitotic cells, replicate 1": 4, "Call": "inactive"}
{"predicted target": "Trs20", "dsRNA no.": 1, "mitotic cells, replicate 1": 5, "Call": "inactive"}
{"predicted target": "DNAlig1", "dsRNA no.": 1, "mitotic cells, replicate 1": 6, "Call": "inactive"}
{"predicted target": "CG9630", "dsRNA no.": 1, "mitotic cells, replicate 1": 7, "Call": "inactive"}
{"predicted target": "lncRNA:CR32661", "dsRNA no.": 1, "mitotic cells, replicate 1": 7, "Call": "inactive"}
{"predicted target": "lncRNA:CR32661", "dsRNA no.": 2, "mitotic cells, replicate 1": 6, "Call": "inactive"}
{"predicted target": "Clc", "dsRNA no.": 1, "mitotic cells, replicate 1": 7, "Call": "inactive"}
{"predicted target": "Clc", "dsRNA no.": 2, "Call": "inactive"}
{"predicted target": "Srx", "dsRNA no.": 1, "mitotic cells, replicate 1": 6, "Call": "inactive"}
{"predicted target": "Jon25Bi", "dsRNA no.": 1, "mitotic cells, replicate 1": 7, "Call": "inactive"}
{"predicted target": "Jon25Bi", "dsRNA no.": 2, "mitotic cells, replicate 1": 7, "Call": "inactive"}
{"predicted target": "D19A", "dsRNA no.": 1, "mitotic cells, replicate 1": 7, "Call": "inactive"}
{"predicted target": "D19A", "dsRNA no.": 2, "mitotic cells, replicate 1": 4, "Call": "inactive"}
{"predicted target": "CG4962", "dsRNA no.": 1, "mitotic cells, replicate 1": 8, "Call": "inactive"}
{"predicted target": "Gnf1", "dsRNA no.": 1, "mitotic cells, replicate 1": 4, "Call": "inactive"}
{"predicted target": "Gnf1", "dsRNA no.": 2, "mitotic cells, replicate 1": 4, "Call": "inactive"}
{"predicted target": "CG17191", "dsRNA no.": 1, "mitotic cells, replicate 1": 10, "Call": "inactive"}
{"predicted target": "CG17191", "dsRNA no.": 2, "mitotic cells, replicate 1": 4, "Call": "inactive"}
{"predicted target": "Eo", "dsRNA no.": 1, "mitotic cells, replicate 1": 11, "Call": "inactive"}
{"predicted target": "Eo", "dsRNA no.": 2, "mitotic cells, replicate 1": 5, "Call": "inactive"}
{"predicted target": "CG31664", "dsRNA no.": 1, "mitotic cells, replicate 1": 5, "Call": "inactive"}
{"predicted target": "mei-217 + mei-218", "dsRNA no.": 1, "mitotic cells, replicate 1": 6, "Call": "inactive"}
{"predicted target": "Hsepi", "dsRNA no.": 1, "mitotic cells, replicate 1": 5, "Call": "inactive"}
{"predicted target": "Hsepi", "dsRNA no.": 2, "mitotic cells, replicate 1": 8, "Call": "inactive"}
{"predicted target": "Sf3b5", "dsRNA no.": 1, "mitotic cells, replicate 1": 7, "Call": "inactive"}
{"predicted target": "Hand", "dsRNA no.": 1, "mitotic cells, replicate 1": 12, "Call": "inactive"}
{"predicted target": "wde", "dsRNA no.": 1, "mitotic cells, replicate 1": 10, "Call": "inactive"}
{"predicted target": "bic", "dsRNA no.": 1, "mitotic cells, replicate 1": 9, "Call": "inactive"}
{"predicted target": "bic", "dsRNA no.": 2, "mitotic cells, replicate 1": 1, "Call": "inactive"}
{"predicted target": "Spn27A", "dsRNA no.": 1, "mitotic cells, replicate 1": 4, "Call": "inactive"}
{"predicted target": "Acbp6", "dsRNA no.": 1, "Call": "inactive"}
{"predicted target": "Acyp", "dsRNA no.": 1, "mitotic cells, replicate 1": 5, "Call": "inactive"}
{"predicted target": "CG6685", "dsRNA no.": 1, "mitotic cells, replicate 1": 5, "Call": "inactive"}
{"predicted target": "CG3224", "dsRNA no.": 1, "mitotic cells, replicate 1": 10, "Call": "inactive"}
{"predicted target": "Ino80", "dsRNA no.": 1, "mitotic cells, replicate 1": 8, "Call": "inactive"}
{"predicted target": "Ino80", "dsRNA no.": 2, "mitotic cells, replicate 1": 5, "Call": "inactive"}
{"predicted target": "Ino80", "dsRNA no.": 3, "mitotic cells, replicate 1": 4, "Call": "inactive"}
{"predicted target": "CG14229", "dsRNA no.": 1, "mitotic cells, replicate 1": 9, "Call": "inactive"}
{"predicted target": "CG14229", "dsRNA no.": 2, "mitotic cells, replicate 1": 10, "Call": "inactive"}
{"predicted target": "qkr58E-3", "dsRNA no.": 1, "mitotic cells, replicate 1": 2, "Call": "inactive"}
{"predicted target": "Prp18", "dsRNA no.": 1, "mitotic cells, replicate 1": 1, "Call": "inactive"}
{"predicted target": "PolZ2", "dsRNA no.": 1, "mitotic cells, replicate 1": 7, "Call": "inactive"}
{"predicted target": "Cpr92F", "dsRNA no.": 1, "mitotic cells, replicate 1": 10, "Call": "inactive"}

A few values from the entries so far.
Value of Srx in “mitotic cells, replicate 1”: 6
Value for CG14229 #1 in “mitotic cells, replicate 1”: 9
Under “Call”, CG9630 reads inactive
For “mitotic cells, replicate 1”, Ino80 #1 is entered as 8
Ino80 #3, Call: inactive
Gnf1 #1, Call → inactive
